The source of these data is the supplement of paper PMC11006884.

Protein sequences, listed by entry. Tags and fused reporters are not part of them. Lines headed by an entry give the natural chain unless they say otherwise; changes in a name come on top.
UniProt Q9UBF2: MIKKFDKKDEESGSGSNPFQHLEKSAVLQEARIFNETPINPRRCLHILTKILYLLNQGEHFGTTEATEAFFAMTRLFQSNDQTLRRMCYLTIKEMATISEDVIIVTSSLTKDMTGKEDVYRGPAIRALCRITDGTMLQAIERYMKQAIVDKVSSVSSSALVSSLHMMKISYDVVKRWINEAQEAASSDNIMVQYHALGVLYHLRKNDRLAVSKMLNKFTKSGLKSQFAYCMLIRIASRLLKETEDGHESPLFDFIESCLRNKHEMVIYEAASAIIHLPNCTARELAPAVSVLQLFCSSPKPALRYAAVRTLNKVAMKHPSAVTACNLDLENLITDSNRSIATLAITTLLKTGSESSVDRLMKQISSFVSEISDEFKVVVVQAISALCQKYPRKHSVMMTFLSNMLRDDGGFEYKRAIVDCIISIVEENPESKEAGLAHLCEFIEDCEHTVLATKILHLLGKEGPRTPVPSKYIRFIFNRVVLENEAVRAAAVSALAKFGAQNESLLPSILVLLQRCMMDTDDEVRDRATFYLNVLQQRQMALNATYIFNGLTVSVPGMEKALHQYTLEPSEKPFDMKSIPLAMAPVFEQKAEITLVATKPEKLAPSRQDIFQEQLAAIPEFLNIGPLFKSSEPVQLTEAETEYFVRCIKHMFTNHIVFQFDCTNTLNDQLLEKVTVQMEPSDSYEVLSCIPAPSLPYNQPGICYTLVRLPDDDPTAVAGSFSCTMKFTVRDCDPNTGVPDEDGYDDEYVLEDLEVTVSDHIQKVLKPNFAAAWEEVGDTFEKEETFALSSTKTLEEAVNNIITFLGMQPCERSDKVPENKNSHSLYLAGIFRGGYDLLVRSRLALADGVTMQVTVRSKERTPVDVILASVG
UniProt Q9UG01, whole entry: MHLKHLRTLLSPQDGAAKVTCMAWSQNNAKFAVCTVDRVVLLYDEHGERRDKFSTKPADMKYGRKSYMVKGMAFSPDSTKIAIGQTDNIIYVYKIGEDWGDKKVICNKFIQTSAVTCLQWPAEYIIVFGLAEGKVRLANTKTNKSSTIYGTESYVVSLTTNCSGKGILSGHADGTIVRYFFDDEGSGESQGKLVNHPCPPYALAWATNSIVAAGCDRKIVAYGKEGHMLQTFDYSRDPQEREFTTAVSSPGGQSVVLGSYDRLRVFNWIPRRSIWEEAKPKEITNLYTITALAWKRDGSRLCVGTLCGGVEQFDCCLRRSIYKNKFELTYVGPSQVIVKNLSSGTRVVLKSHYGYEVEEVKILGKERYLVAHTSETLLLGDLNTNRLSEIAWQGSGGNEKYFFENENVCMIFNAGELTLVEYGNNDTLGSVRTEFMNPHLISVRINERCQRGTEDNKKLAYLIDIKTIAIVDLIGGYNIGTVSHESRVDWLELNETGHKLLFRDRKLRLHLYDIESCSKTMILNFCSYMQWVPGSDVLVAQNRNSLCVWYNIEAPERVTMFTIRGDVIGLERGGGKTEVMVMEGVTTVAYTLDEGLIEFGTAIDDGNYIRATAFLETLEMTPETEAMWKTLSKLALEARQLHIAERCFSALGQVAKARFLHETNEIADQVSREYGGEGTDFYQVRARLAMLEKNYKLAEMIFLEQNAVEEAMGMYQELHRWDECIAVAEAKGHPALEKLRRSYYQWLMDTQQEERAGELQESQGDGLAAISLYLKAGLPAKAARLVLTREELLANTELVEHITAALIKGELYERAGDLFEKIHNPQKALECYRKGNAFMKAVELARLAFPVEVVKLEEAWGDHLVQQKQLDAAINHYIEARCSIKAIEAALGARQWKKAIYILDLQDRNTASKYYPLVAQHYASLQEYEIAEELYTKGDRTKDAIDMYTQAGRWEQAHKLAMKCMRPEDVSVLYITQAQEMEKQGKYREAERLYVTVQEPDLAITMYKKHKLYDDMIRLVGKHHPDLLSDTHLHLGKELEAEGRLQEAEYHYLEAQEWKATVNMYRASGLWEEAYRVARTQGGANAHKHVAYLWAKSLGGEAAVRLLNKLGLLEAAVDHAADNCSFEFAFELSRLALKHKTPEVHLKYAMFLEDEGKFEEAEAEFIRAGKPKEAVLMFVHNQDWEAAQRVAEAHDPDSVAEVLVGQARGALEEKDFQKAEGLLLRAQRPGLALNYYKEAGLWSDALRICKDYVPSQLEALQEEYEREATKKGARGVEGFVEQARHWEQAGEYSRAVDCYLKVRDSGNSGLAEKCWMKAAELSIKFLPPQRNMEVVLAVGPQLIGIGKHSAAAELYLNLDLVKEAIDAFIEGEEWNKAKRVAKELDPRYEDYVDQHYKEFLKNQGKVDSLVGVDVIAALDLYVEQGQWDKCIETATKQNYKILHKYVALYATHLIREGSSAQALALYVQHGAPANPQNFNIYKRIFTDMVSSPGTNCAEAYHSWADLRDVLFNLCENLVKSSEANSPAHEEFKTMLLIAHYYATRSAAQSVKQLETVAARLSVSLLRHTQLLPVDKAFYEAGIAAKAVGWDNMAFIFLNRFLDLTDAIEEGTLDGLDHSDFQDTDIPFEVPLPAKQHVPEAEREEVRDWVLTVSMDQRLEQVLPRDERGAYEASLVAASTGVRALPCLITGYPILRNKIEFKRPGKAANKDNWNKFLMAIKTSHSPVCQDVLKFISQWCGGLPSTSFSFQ
UniProt Q9NVA2: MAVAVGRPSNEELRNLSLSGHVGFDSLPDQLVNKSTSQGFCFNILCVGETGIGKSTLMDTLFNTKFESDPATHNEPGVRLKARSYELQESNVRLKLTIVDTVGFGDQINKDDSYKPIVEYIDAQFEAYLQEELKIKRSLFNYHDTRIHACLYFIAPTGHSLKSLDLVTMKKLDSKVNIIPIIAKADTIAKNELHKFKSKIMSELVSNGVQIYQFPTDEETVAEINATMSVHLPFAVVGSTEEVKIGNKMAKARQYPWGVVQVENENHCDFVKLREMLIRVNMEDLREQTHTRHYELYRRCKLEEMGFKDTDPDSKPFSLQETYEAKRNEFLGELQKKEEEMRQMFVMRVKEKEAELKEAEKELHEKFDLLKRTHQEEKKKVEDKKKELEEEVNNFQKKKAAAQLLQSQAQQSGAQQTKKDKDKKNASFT
UniProt Q9UBB4: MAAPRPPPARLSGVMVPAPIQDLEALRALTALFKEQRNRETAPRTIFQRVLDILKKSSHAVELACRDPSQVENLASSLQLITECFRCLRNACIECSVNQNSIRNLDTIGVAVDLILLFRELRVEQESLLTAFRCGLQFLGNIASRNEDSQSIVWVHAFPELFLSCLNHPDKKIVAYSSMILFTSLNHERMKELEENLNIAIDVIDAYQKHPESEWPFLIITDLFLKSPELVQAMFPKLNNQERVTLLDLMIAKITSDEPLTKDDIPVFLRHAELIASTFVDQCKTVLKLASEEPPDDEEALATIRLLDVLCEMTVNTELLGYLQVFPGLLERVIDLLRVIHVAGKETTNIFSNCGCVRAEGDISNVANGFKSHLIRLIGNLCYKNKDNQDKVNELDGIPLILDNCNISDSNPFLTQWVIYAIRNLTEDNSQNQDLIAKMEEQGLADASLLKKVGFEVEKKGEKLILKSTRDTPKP
UniProt Q9P2E9: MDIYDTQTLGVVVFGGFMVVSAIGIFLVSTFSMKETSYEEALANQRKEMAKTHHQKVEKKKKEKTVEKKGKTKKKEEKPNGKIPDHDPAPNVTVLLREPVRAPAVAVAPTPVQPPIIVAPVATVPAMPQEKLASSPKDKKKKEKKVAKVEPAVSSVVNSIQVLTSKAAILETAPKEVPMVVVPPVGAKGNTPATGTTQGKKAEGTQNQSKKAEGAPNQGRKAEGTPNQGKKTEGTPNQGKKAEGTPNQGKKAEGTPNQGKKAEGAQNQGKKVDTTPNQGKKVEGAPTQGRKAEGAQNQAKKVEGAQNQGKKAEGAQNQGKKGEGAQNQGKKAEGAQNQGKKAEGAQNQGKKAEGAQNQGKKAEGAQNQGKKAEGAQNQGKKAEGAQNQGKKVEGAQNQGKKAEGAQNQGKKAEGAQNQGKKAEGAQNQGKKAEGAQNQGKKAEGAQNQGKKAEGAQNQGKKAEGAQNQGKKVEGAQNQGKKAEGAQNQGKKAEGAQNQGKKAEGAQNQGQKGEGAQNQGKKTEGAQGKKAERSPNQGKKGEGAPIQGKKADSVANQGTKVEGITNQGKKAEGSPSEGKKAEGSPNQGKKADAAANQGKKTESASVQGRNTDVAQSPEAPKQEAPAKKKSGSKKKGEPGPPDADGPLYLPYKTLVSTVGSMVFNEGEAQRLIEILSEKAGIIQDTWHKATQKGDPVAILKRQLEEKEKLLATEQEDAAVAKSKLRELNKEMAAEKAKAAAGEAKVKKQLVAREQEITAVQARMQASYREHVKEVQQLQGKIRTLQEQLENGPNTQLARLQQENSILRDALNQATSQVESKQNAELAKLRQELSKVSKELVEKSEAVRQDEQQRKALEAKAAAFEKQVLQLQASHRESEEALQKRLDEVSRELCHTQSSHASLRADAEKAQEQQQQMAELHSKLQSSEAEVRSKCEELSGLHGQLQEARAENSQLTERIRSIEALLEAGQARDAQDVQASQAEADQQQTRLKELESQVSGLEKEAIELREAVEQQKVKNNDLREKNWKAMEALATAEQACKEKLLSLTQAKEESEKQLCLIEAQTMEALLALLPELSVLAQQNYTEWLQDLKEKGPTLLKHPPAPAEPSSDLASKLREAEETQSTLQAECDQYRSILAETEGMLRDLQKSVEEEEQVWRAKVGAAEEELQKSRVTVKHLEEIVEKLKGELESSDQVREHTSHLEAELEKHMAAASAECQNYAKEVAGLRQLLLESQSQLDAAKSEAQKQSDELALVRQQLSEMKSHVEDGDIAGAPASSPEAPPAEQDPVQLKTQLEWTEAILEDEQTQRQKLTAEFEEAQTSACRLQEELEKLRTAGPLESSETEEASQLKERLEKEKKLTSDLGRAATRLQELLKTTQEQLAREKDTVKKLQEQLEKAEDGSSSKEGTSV
UniProt Q9NX61: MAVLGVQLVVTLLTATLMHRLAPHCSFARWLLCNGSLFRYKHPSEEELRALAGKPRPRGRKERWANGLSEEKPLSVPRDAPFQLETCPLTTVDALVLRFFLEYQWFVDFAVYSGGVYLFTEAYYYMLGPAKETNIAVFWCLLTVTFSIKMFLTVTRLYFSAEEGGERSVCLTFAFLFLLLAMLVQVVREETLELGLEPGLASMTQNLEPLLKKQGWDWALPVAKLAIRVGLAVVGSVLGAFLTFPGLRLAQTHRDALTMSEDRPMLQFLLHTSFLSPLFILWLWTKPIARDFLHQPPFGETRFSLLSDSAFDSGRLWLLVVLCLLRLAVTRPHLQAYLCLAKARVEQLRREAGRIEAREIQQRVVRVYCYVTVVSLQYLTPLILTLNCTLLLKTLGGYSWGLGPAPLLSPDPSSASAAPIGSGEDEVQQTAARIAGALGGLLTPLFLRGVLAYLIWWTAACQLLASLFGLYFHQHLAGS
UniProt Q9UGI8: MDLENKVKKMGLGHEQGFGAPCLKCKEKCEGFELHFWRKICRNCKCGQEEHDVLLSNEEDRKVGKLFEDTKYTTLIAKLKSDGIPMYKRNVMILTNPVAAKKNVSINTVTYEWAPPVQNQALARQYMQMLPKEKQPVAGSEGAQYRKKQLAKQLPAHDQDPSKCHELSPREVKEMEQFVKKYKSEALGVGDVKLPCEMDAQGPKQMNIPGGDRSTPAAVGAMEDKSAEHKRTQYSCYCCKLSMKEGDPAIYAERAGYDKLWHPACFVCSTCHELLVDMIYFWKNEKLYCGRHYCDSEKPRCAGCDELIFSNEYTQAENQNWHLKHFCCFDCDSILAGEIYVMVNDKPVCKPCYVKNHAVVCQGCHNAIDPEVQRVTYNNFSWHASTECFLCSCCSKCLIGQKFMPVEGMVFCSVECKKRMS
UniProt Q9NZL9, whole entry, looked up: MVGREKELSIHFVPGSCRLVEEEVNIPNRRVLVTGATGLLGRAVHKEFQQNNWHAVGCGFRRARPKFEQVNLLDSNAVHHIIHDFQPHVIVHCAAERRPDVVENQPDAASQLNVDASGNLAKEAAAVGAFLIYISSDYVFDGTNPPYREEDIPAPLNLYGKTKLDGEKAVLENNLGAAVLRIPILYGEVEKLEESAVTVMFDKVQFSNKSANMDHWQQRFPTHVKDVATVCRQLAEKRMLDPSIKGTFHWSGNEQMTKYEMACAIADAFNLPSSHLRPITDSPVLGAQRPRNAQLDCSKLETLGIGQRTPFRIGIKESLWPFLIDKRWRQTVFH
UniProt Q9NYP9: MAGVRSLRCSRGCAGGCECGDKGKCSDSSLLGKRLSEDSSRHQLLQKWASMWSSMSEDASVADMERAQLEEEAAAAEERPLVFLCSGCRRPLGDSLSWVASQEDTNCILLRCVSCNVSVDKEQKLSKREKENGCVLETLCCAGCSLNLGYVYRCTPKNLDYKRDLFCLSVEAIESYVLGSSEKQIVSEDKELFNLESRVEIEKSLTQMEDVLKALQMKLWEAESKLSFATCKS

This is a selection; strong and weak results do not stand in their true shares.

Compound in this assay: COC(=O)C#Cc1ccccc1 [methyl 3-phenylpropiolate]
As to the kind of experiment: log2 ratio of iodoacetamide-alkyne labeling of the cysteine site, DMSO over compound (competition); higher = stronger covalent engagement of the cysteine by the compound, active = 1 or more. Particulars: 500 µM; treatment time 1 h; system: HEK293T cell lysate. The method in brief: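 HEK293T lysate (2 mg/mL) was incubated with electrophile (500 µM) or vehicle for 1 h at ambient temperature and then with iodoacetamide alkyne for 1 h. Labelled proteins were clicked to sCIP-TMT reagents, pooled, digested, enriched on streptavidin and measured by Orbitrap Eclipse LC-MS/MS with FAIMS, with FragPipe quantification. The per-cysteine log2 competition ratio is mean control-channel reporter intensity over mean compound-channel reporter intensity. Across three replicates with duplicate channels, cysteines quantified in only one replicate were excluded.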
With ERAP1 C486 (UniProt Q9NZ08), the “log2 ratio of iodoacetamide-alkyne labeling” value (from here on “log2 ratio”) was inactive: 0.733.
With AASS C534 (UniProt Q9UDR5), the “log2 ratio” value is inactive: 0.0127.
Regarding GDE1 C127 (UniProt Q9NZC3), the “log2 ratio” value was inactive: -0.0158.
Regarding ALKBH4 C159 (UniProt Q9NXW9), the “log2 ratio” value is inactive: 0.233.
Regarding COPG2 C440 (UniProt Q9UBF2), the “log2 ratio” value is inactive: 0.463.
As to ARHGEF12 C921 (UniProt Q9NZN5), the “log2 ratio” value is inactive: 0.718.
With UniProt Q9P266_C1347, the “log2 ratio” value is inactive: 0.0914.
For LARS C248 (UniProt Q9P2J5), the “log2 ratio” value was inactive: -0.687.
Turning to DAXX C338 (UniProt Q9UER7), the “log2 ratio” value was inactive: 0.306.
With IFT172 C1686 (UniProt Q9UG01), the “log2 ratio” value was inactive: -0.0302.
On to UniProt Q9NW64_C24, for which the “log2 ratio” value is inactive: 0.351.
Take UniProt Q9NVA2_C268: the “log2 ratio” value was inactive: 0.822.
For ATXN10 C283 (UniProt Q9UBB4), the “log2 ratio” value was inactive: 0.167.
On to SLTM C568 (UniProt Q9NWH9), for which the “log2 ratio” value is inactive: 0.222.
For RRBP1 C1216 (UniProt Q9P2E9), the “log2 ratio” value is inactive: 0.633.
As to ALKBH4 C194 (UniProt Q9NXW9), the “log2 ratio” value is inactive: -0.0775.
TRMT1 C86 (UniProt Q9NXH9): the “log2 ratio” value was inactive: 0.357.
For FAM105A C177 (UniProt Q9NUU6), the “log2 ratio” value was inactive: 0.221.
Regarding UniProt Q9P289_C410, the “log2 ratio” value was inactive: 0.385.
As for ATXN10 C134 (UniProt Q9UBB4), the figure is inactive: 0.126; as for SEC63 C366 (UniProt Q9UGP8), inactive: -0.163; as for MRPL39 C335 (UniProt Q9NYK5), inactive: 0.184.
Turning to TMEM161A C33 (UniProt Q9NX61), the “log2 ratio” value was inactive: 0.304.
On to UCKL1 C317 (UniProt Q9NWZ5), for which the “log2 ratio” value is inactive: 0.327.
LARS C554 (UniProt Q9P2J5): the “log2 ratio” value is active: 1.74.
As for MED17 C110 (UniProt Q9NVC6), the figure is inactive: 0.34; as for OCIAD1 C38 (UniProt Q9NX40), inactive: 0.165; as for ZMYM2 C1331 (UniProt Q9UBW7), inactive: 0.196.
For BSDC1 C49 (UniProt Q9NW68), the “log2 ratio” value is inactive: -0.0312.
As for UniProt Q9NXE8_C107, the figure is inactive: 0.236; as for TES C364 (UniProt Q9UGI8), inactive: 0.125.
As to MAT2B C297 (UniProt Q9NZL9), the “log2 ratio” value was inactive: 0.176.
As to UniProt Q9NYP9_C107, the “log2 ratio” value is inactive: 0.197.
For the target TES C412 (UniProt Q9UGI8), the “log2 ratio” value was inactive: 0.0269.
Regarding TRMT1 C639 (UniProt Q9NXH9), the “log2 ratio” value was inactive: 0.233.
Consider POLR3E C456 (UniProt Q9NVU0), for which the “log2 ratio” value is inactive: 0.675.
As to TMOD3 C231 (UniProt Q9NYL9), the “log2 ratio” value was inactive: 0.0905.
On to NECAP2 C133 (UniProt Q9NVZ3), for which the “log2 ratio” value was inactive: 0.451.
